Source: PubChem BioAssay AID2685 (National Center for Advancing Translational Sciences (NCATS), 2010)
The list shows a part of the results. These are further read-outs of the screen, such as a control signal, another cell line or another target. No call is given for them. The list favours compounds with an active or inconclusive main result. Words in brackets tell the shape of the fitted curve; partial curves, single points and poor fits give uncertain potencies.

Assay: qHTS Assay for Lipid Storage Modulators in Drosophila S3 Cells;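 as to cell number change: cells counted by Cell Tracker Red CMTPX staining in the red channel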
Conditions: BODIPY lipid droplet fluorescence, 18-24 h; for cell number change: measured here: cell count max response, cells fed with added oleic acid
Summary of the method: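 Drosophila S3 cells loaded with oleic acid (400 uM, as added) and compounds at several concentrations; lipid droplets imaged by 488-nm laser-scanning cytometry, 500–530 nm intensity and object ratio to cell channel. Percent activity normalized to 20 uM Triacsin C.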

[1] = measured here: lipid fluorescence (Fed channel) AC50, cells fed with added oleic acid
[2] = measured here: cell number channel AC50, cells fed with added oleic acid

SMILES	AC50 [1]	cell number change [%]	AC50 [2]
COc1ccc(S(=O)(=O)N(C)CC(=O)N2CCCCCC2)cc1OC	0.13 µM [falling, full curve, poor fit]		
CC1CCCC(NC(=O)c2ccncc2)C1C (configuration not stated)	18.4 µM [falling, single point]	1.57	
Oc1ccc2ccccc2c1C=NCc1ccccc1	29.1 µM [falling, single point]	-22.6	
CCN(CC)C1=NC=CC(c2ccccc2)=CC1C (configuration not stated)	16.4 µM [falling, partial curve, poor fit]	-35	0.058 µM [falling, full curve, poor fit]
COc1ccc(NC(=O)c2cc3ccc4c5ccccc5[nH]c4c3cc2O)cc1	29.1 µM [falling, single point]	15.6	
O=C(NC(NC(=S)Nc1ccccc1C(=O)O)C(Cl)(Cl)Cl)c1ccccc1 (configuration not stated)	5.17 µM [falling, partial curve]	-21.3	
Cc1nc(NC(=O)c2ccc(OCC(C)C)cc2)sc1Cc1ccc2c(c1)OCO2	29.1 µM [rising, single point]	7.69	
CN1CCN(S(=O)(=O)c2cccc(C(=O)Nc3sc4c(c3-c3nc5ccccc5[nH]3)CCCC4)c2)CC1	2.06 µM [rising, partial curve, poor fit]	-9.8	
CCSc1nnc2c(Cl)cc(Cl)cn12		-13	
C=CCNC(=O)c1cccc(NS(=O)(=O)c2ccc(Cl)cc2)c1	0.651 µM [falling, full curve, poor fit]	-13.6	
O=C(O)/C=C/C(=O)Nc1ccc(Cc2ccc(NC(=O)/C=C/C(=O)O)cc2)cc1	6.51 µM [falling, single point]	0.845	
O=C(NNC(=O)c1ccccc1O)c1ccc(Cl)c(S(=O)(=O)N2CCc3ccccc32)c1	29.1 µM [falling, single point]	-15	
C[C@H](NC(=O)N1CCn2c1nc1ccccc12)C(=O)NCC1CCCO1 (some centres not stated)	0.82 µM [rising, single point]	-10.6	
CC1(C)Cc2c(cnn2-c2cccc(F)c2)C(NC(=O)c2ccc[n+]([O-])c2)C1 (configuration not stated)	0.103 µM [falling, full curve, poor fit]	-16.5	
COc1ccccc1NS(=O)(=O)c1cc(NC(=O)c2ccc3c(c2)OCCO3)ccc1C	2.91 µM [rising, partial curve]	-1.74	2.91 µM [rising, single point]
O=C(CN1CC(=O)Oc2ccccc21)OCC(=O)c1ccccc1	0.731 µM [falling, full curve]	12.6	
COc1ccc(N2CCN(Cc3cc(=O)oc4cc(C)c(Cl)cc34)CC2)cc1	6.51 µM [rising, single point]	19.7	
COc1ccc(C2=NOC(C(=O)NCCCn3ccnc3)C2)cc1 (configuration not stated)	0.13 µM [rising, full curve, poor fit]		5.8 µM [rising, single point]
N#CC1(NC(=O)COC(=O)c2ccccc2[N+](=O)[O-])CCCCC1		8.66	
O=C1/C(=C/c2cccs2)SC(=S)N1CCC(=O)N1CCCCC1CCO (configuration not stated)	29.1 µM [falling, single point]	-22.4	

Entries of single compounds as entered above:
`COc1ccccc1NS(=O)(=O)c1cc(NC(=O)c2ccc3c(c2)OCCO3)ccc1C` as listed: AC50 [1]: 2.91 µM [rising, partial curve]; cell number change [%]: -1.74; AC50 [2]: 2.91 µM [rising, single point]
`N#CC1(NC(=O)COC(=O)c2ccccc2[N+](=O)[O-])CCCCC1` as listed: cell number change [%]: 8.66
`CN1CCN(S(=O)(=O)c2cccc(C(=O)Nc3sc4c(c3-c3nc5ccccc5[nH]3)CCCC4)c2)CC1` as listed: AC50 [1]: 2.06 µM [rising, partial curve, poor fit]; cell number change [%]: -9.8

(further entries)

SMILES	AC50 [1]	cell number change [%]	AC50 [2]
O=C(CCCCCn1c(=S)[nH]c2cc3c(cc2c1=O)OCO3)N1CCN(Cc2ccccc2)CC1			0.146 µM [rising, full curve, poor fit]
CN=C1CC(C)(C)CC(=O)/C1=C(/O)CCCN1C(=O)c2ccccc2C1=O	6.51 µM [falling, single point]	16.5	
Cc1ccc(-c2c(C)c(-c3ccc(F)cc3)nc(N)c2C#N)o1	25.9 µM [falling, single point]	-38.2	16.4 µM [falling, partial curve]
CC(C)CNC(=O)c1cc(-c2ccc(Br)cc2)on1	7.31 µM [rising, partial curve]	28.9	
Cc1ccccc1OCC(=O)NS(=O)(=O)c1ccc(Cl)cc1	18.4 µM [falling, partial curve]	-12.1	
CC(Sc1nnc(Cc2ccccc2)o1)C(=O)Nc1ccccc1[N+](=O)[O-] (configuration not stated)	0.00731 µM [falling, full curve, poor fit]	-23	
COc1ccc(N2C(=O)C(Cl)=C(N(CCO)Cc3ccccc3)C2=O)cc1	29.1 µM [rising, single point]	75.9	29.1 µM [rising, single point]
O=C(Nc1ccccc1Oc1cccnc1)C1CCCN(Cc2ccc(F)cc2)C1 (configuration not stated)	11.6 µM [falling, single point]	-16.4	
C=CCn1cnc2c(c1=O)c1nc3ccccc3nc1n2Cc1ccccc1		34.1	0.366 µM [rising, full curve]
O=C1C(Cl)=C(N2CCOCC2)C(=O)N1c1ccccc1Cl		-2.4	
O=C(COC(=O)c1cccc(Oc2ccccc2)c1)NCc1ccco1	1.84 µM [falling, full curve]	-27.2	
COc1ccc(C(=O)NCCCCCC(=O)O)cc1OC	1.84 µM [falling, partial curve]		
COc1cc(/C=N/N2CCN(Cc3ccc(Cl)cc3)CC2)cc(Br)c1O		-19.3	
O=C(Nc1ccccc1)c1snc2c(=O)[nH]cnc12	14.6 µM [rising, partial curve, poor fit]	12.7	
CCn1c(=O)c(=O)n(CC)c2cc(S(=O)(=O)Nc3ccc(C)cc3)ccc21	29.1 µM [rising, single point]	21.3	
COc1ccc(/C=N/NC(=O)C[n+]2ccccc2)c(OC)c1OC	5.17 µM [falling, single point]	17.2	6.51 µM [falling, single point]
CCN(Cc1ccncc1)Cc1c(O)ccc2cc(Br)ccc12		-8.25	6.51 µM [falling, single point]
O=C(Cn1c(=O)oc2cc(S(=O)(=O)N3CCCC3)ccc21)NC1CCCCC1		36.5	
Nc1c(N(Cc2ccccc2)C(=O)CCc2ccccc2)c(=O)[nH]c(=O)n1Cc1ccccc1	0.146 µM [rising, full curve, poor fit]	3.03	0.13 µM [rising, full curve, poor fit]
O=C(Cn1nc(C(=O)O)c2ccccc2c1=O)Nc1cc(Cl)ccc1-n1cncn1		31.2	

SMILES	AC50 [1]	cell number change [%]	AC50 [2]
Nc1ccc(Nc2nc(-c3ccncc3)cs2)cc1	0.116 µM [rising, full curve, poor fit]	11.3	
O=C(NC(NC(=S)Nc1cccc(Cl)c1)C(Cl)(Cl)Cl)OCc1ccccc1 (configuration not stated)	6.51 µM [falling, single point]	-45.7	7.31 µM [falling, partial curve, poor fit]
COc1ccccc1NS(=O)(=O)c1ccc(C(=O)NCCCn2ccnc2)cc1	16.4 µM [rising, partial curve]	6.61	
O=C(COc1coc(CN2CCc3ccccc3C2)cc1=O)Nc1cccc(F)c1	0.00461 µM [falling, full curve, poor fit]	2.89	
COc1ccccc1NC(=O)COC(=O)c1ccccc1OCC(=O)Nc1ccc(SC(F)F)cc1	4.61 µM [rising, single point]	42.1	4.61 µM [rising, partial curve]
O=C(c1ccccc1OC(F)F)N1CCN(S(=O)(=O)c2ccc3c(c2)OCCCO3)CC1	0.00461 µM [falling, full curve, poor fit]	-20.2	
COC(=O)C(F)(Sc1c(C)n(C)n(-c2ccccc2)c1=O)C(F)(F)F (configuration not stated)	29.1 µM [falling, single point]	-20.4	
O=C(CCC(=O)Nc1ccccc1)NNC(=O)c1ccco1		-41.2	25.9 µM [falling, partial curve, poor fit]
O=C1C=C(c2cccc(Cl)c2)C[C@@H](c2ccc(Cl)cc2)C1	20.6 µM [rising, single point]	4.54	
CCc1ccc(S(=O)(=O)Nc2nccs2)cc1	6.51 µM [rising, single point]	9.45	
O=C(NCCCN1CCOCC1)c1ccc(NS(=O)(=O)c2ccccc2)cc1		2.89	
CN(C)CCCC(C)(O)C(C)(C)c1ccccc1 (configuration not stated)	32.6 µM [falling, single point]	1.58	
CCOc1ccc(NC(=O)C(C)Sc2nccn2C)cc1 (configuration not stated)		-14.9	
CCCn1c(=O)c2ccccc2n2c(SCc3c(C(=O)OCC)oc4ccccc34)nnc12		1.34	
CCCCCCC(=O)N(O)C1CC(=O)N(Cc2ccccc2)C1=O (configuration not stated)	0.461 µM [falling, full curve]	-15.9	3.66 µM [falling, partial curve, poor fit]
CCCCN(C(=O)CN1C(=O)C2CCCCC2C1=O)c1c(N)n(CCC)c(=O)[nH]c1=O (configuration not stated)		-49.8	29.1 µM [falling, single point]
C=CCn1c(=O)c2c3c(sc2n2c(Nc4ccc(C(=O)OCC)cc4)nnc12)CCCC3	0.651 µM [rising, full curve]	-8.41	0.517 µM [rising, full curve]
Cc1nn(C)cc1CNC(=O)c1cccc(F)c1	16.4 µM [rising, single point]	-0.651	
COc1ccc(OC)c(NC(=O)Cn2cccc2)c1		21.8	
CSc1ccccc1NC(=O)CSc1n[nH]c(N)n1		19	0.82 µM [rising, single point]
